From doi:10.1101/2025.10.28.684968
Where two headings read alike, the source gives them in different places. These are yes or no findings as the source states them, for the method shown. In cells and extracts the contact can be indirect. Some entries that bind do so weakly or less than the wild type. For part of these data: Where a sequence is shown, tags or fusion partners need not be part of it.

Amino acid sequences for entries named in this document (tags omitted). A change or cut given only in a name is not applied to a line headed by its entry. Residues count along the entry.
UniProt P07355, whole entry: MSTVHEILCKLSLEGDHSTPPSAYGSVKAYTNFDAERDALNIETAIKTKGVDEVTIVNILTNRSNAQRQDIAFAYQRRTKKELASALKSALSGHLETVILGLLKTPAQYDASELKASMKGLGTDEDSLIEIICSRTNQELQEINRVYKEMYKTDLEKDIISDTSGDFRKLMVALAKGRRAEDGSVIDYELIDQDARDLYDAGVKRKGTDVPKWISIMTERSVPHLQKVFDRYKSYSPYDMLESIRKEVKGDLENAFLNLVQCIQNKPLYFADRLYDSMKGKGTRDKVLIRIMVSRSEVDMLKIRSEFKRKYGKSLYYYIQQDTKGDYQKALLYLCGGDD
UniProt P07355, 1-108: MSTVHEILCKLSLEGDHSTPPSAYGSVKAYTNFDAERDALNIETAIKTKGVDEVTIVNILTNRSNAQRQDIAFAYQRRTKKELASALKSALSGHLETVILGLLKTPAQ
UniProt P07355, 1-187: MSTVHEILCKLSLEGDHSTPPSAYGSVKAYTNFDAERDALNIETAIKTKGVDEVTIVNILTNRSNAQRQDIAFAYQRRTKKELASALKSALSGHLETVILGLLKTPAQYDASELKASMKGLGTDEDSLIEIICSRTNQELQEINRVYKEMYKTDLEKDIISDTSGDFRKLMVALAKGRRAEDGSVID
UniProt P07355, 1-268: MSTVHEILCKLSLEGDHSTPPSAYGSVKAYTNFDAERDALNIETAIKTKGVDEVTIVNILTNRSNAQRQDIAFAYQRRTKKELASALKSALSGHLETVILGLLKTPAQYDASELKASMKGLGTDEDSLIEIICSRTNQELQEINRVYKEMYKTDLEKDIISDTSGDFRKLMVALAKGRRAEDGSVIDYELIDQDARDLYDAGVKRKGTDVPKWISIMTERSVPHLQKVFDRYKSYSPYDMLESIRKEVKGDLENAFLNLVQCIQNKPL

How the values were obtained:
Experiment in all cases: co-IP
[1] = biological target: T1, FLAG-MDA5 (human (cDNA from HEK293 cells)) (UniProt Q9BYX4)
T1 sequence: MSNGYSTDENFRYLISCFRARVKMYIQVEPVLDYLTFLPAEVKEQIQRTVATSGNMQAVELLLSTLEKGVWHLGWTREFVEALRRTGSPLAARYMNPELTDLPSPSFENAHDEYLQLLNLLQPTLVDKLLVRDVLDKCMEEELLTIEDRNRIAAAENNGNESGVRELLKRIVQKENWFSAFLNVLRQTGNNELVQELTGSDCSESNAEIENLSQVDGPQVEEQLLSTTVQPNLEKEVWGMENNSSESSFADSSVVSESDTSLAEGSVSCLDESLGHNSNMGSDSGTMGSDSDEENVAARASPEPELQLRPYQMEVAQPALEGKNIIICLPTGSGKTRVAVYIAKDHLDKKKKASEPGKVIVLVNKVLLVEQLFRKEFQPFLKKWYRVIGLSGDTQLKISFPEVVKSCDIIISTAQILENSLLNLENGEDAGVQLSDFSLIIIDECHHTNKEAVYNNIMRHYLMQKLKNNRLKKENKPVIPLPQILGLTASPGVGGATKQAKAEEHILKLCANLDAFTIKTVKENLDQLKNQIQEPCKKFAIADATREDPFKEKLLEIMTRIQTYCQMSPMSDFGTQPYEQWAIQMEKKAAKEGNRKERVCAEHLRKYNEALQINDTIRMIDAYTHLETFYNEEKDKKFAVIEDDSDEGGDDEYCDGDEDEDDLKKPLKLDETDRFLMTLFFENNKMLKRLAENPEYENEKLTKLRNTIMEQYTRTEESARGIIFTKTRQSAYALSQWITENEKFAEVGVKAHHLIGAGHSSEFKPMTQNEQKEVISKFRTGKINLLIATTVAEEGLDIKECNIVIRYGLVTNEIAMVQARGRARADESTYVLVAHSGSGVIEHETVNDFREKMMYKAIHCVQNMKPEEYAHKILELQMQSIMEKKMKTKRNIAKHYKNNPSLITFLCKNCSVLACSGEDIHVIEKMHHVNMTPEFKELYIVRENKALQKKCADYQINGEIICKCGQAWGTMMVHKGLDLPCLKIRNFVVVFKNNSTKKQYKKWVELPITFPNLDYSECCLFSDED

[2] = biological target: T2, Melanoma differentiation-associated protein 5 (MDA5), endogenous in THP1 cells (human (endogenous in THP1)) (UniProt Q9BYX4)
T2 sequence: T1 sequence

[3] = biological target: T2, Melanoma differentiation-associated protein 5 (MDA5), endogenous in THP1 cells (human (endogenous in THP1)); remark: listed apart in the source
[4] = biological target: T3, FLAG-MDA5-ΔCARD (human (cDNA from HEK293 cells)) (UniProt Q9BYX4)
T3 sequence: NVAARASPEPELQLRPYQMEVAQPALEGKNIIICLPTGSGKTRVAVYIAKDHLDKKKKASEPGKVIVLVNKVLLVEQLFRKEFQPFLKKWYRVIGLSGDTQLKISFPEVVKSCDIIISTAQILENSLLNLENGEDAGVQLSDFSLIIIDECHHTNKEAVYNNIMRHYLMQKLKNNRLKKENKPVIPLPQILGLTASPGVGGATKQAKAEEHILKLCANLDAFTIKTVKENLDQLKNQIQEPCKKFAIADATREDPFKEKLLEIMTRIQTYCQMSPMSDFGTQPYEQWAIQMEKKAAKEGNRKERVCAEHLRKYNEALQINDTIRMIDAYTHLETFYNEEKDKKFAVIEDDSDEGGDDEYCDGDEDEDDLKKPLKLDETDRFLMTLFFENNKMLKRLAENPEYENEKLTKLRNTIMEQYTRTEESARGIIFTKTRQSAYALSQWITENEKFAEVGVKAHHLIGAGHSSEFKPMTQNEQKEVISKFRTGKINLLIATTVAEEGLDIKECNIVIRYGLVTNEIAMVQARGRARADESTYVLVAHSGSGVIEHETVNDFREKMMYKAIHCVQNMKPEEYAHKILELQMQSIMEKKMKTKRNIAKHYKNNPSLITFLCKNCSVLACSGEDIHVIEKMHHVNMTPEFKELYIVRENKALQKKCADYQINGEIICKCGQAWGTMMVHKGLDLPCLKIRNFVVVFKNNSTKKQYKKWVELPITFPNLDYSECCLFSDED

Row | binding [1] | Substance | further results
1 | binds | HA-ANXA2-Y188X (from UniProt P07355 1-187) (domain or fragment) | –
2 | binds | HA-ANXA2-Y269X (from UniProt P07355 1-268) (domain or fragment) | –
3 | binds | HA-ANXA2-Y109X (from UniProt P07355 1-108) (domain or fragment) | –
4 | binds | HA-ANXA2-S12A (from UniProt P07355 1-339) | –
5 | – | Annexin A2 (ANXA2), endogenous in THP1 cells (from UniProt P07355 1-339) | binding [2]: no binding (condition: uninfected cells); binding [3]: binds
6 | binds | HA-ANXA2-PP1-mut (from UniProt P07355 1-339) | –
7 | binds | HA-ANXA2 (from UniProt P07355 1-339) | binding [4]: no binding
